Hit rate of the full screen: of about 78,000 compounds, about 1,800 (2.3%) were called active. Inconclusive results, whose numbers are uncertain, are shown with a selection of clear calls. Rule as the data show it: active = inhibition above about 30%; inconclusive = mostly about 10% to 28%; inactive = weaker than that.
molecular target: Interleukin-1 receptor-like 1 (Homo sapiens) (UniProt Q01638); test: blocks human ST2 binding to IL-33, primary screen, biochemical, AlphaLISA (AID 1259354); settings: AlphaLISA ST2-Fc/biotin-IL-33 interaction, 1 h; at 17 µM, stronger effect = higher value

By UniProt entry, the sequences of proteins in these tests, tags left out. Where a name states a change or a piece, a line headed by the entry shows the natural chain unless it says otherwise.
UniProt Q01638: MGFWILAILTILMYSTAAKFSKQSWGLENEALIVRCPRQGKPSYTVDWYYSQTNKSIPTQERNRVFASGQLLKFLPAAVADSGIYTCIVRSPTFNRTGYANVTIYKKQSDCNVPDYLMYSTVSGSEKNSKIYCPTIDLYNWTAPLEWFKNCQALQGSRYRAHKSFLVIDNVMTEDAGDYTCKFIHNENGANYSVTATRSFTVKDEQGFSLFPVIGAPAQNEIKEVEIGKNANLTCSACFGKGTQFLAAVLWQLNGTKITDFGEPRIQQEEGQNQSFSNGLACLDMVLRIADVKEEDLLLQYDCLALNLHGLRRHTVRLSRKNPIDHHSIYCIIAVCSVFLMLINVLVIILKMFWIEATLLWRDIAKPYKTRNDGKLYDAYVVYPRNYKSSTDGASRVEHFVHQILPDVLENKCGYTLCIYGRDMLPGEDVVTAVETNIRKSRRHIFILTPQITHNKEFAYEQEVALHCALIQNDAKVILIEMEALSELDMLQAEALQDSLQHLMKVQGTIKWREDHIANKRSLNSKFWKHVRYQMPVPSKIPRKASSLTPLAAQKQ

SMILES	inhibition
CC(=O)Nc1ccc(S(=O)(=O)NCCn2c(C)cc3ccccc32)cc1	inactive
Cc1ccccc1OCC1CN(CN2CCC(C)CC2)C(=O)O1 (stereo not drawn)	inconclusive: 24%
COc1ccccc1CN1CCN(Cc2cc(OC)c(OC)c(OC)c2)CC1	inactive
O=c1c(-c2ccccc2Cl)coc2cc(O)ccc12	inconclusive: 19%
CC(=O)Nc1c(C(=O)Nc2ccc(F)cc2)oc2ccccc12	inactive
Cn1c(=O)c2c(nc(Oc3ccc4c(c3)OCO4)n2Cc2ccccc2)n(C)c1=O	inconclusive: 25%
COc1cccc(-n2cc(CN(C)CCC(F)(F)F)cn2)c1	inconclusive: 11%
CN(C)CCN(C)[C@@H]1[C@H](O)[C@H](CO)O[C@@H]1CNC(=O)c1cccs1	inconclusive: 17%
Cc1nc2sc(C(c3ccccc3)N3CCN(c4cccc(Cl)c4)CC3)c(O)n2n1 (stereo not drawn)	inconclusive: 18%
CCOC(=O)C1(CCc2ccccc2)CCN(Cc2ccc(OC)cc2)CC1	inconclusive: 19%
C[C@H]1[C@@H]2[C@@H](O)C([C@H](C)C(=O)NCCN3CCOCC3)CC[C@@]2(C)CC[C@@H]1NC(=O)C1CCCCC1 (stereo partly drawn)	active: 32%
COc1ccc(N2CCCS2(=O)=O)cc1NC(=O)c1ccc(Cl)cc1	inconclusive: 10%
COc1ccc(NC(=O)C(c2ccccc2)c2ccccc2)cc1	inactive
O=c1ccc2ccc(OCc3ccc(F)cc3)cc2o1	inactive
CN(Cc1ccccc1)C1(C(=O)NCC2CCCCO2)Cc2ccccc2C1 (stereo not drawn)	inactive
CCCCNC(=O)CN1C(=O)/C(=C/c2ccccc2C)Sc2ccccc21	inconclusive: 20%
Cc1ccc(OCC(=O)Nc2cccc(C(F)(F)F)c2)c(Br)c1	inactive
COc1ccc(S(=O)(=O)N(CC(=O)Nc2cccc(C(C)=O)c2)Cc2ccccc2)cc1	inactive
COc1cccc(C(=O)NCC2CCCN(Cc3nc4ccccc4[nH]3)C2)c1OC (stereo not drawn)	inconclusive: 13%
CC1(C(=O)NC2CCCCC2)CCC(=O)N1Cc1ccc(F)cc1Cl (stereo not drawn)	inactive
O=C(c1cccs1)N1CCN=C1SCc1cccc(Cl)c1	inactive
Cc1ccccc1-n1nc2c(c1NC(=O)C(C)C)CSC2	inactive
CC(C)C1CN(Cc2cccnc2)CCC(=O)N1Cc1ccc(F)cc1 (stereo not drawn)	inconclusive: 17%
COc1ccc(N2CCCS2(=O)=O)cc1NC(=O)c1cccc(Br)c1	inactive

SMILES	inhibition
Cc1cc(C)cc(OCC(=O)NCCc2nc3ccccc3[nH]2)c1	inconclusive: 12%
COc1ccc(Cl)cc1NC(=O)CSc1nc2ncccc2[nH]1	inconclusive: 11%
CC(C(=O)Nc1cccc(NC(=O)CCc2ccccc2)c1)N1CCCC1=O (stereo not drawn)	inconclusive: 16%
CN(C)CCN1C(=O)NC(Cc2cccc(F)c2)(C2CCN(C(=O)/C=C/c3cccs3)CC2)C1=O (stereo not drawn)	inconclusive: 10%
CC(C)(C)C1=CC(=O)c2c(ccc(C(C)(C)C)c2O)C1=O	active: 65%
Cc1nnc(-c2cccc(-c3ccc4c(c3)OCCO4)c2)o1	inconclusive: 21%
COCC1(C(=O)N2CCC(c3nc4c(C)cccc4[nH]3)CC2)CCC1	inconclusive: 11%
Cc1cc(Cl)ccc1OCCCC(=O)Nc1ccccc1[N+](=O)[O-]	inconclusive: 12%
COc1ccc(-c2ccnc(N[C@H]3CO[C@H]4[C@@H]3OC[C@@H]4NS(=O)(=O)c3ccc(NC(C)=O)cc3)n2)cc1	inconclusive: 21%
O=c1c(-c2ccc3ccccc3c2)ccc2n1C[C@H]1C[C@@H]2CN(S(=O)(=O)c2ccccc2)C1	inconclusive: 26%
Cc1ccc(S(=O)(=O)Cc2noc([C@@H]3C[C@@H](O)CN3Cc3ccc(C(F)(F)F)cc3)n2)cc1	inactive
CC1(C)CC(=O)c2sc(NC(=O)c3cccc(N4C(=O)CCC4=O)c3)nc2C1	inconclusive: 13%
COc1cccc(CN(C)Cc2cc3ccc(F)cc3[nH]c2=O)c1	inconclusive: 18%
Cc1cccc(Cn2cc(C(=O)Nc3ccccc3)ccc2=O)c1	inactive
O=C(c1ccco1)N1CCN(C(=O)C2c3ccccc3C(=O)N3CCc4ccccc4C23)CC1 (stereo not drawn)	inactive
FC(F)C(F)(F)C1=Nc2ccccc2N=C(c2cccs2)C1	inconclusive: 15%
CCc1ccc(Cn2c(CNS(=O)(=O)c3ccc(CC)cc3)nc3cccnc32)cc1	inconclusive: 10%
c1ccc(N2CCN(Cc3ccsc3)CC2)cc1	inactive
CCCn1ncc(C(=O)N(CC)Cc2noc(C)n2)c1C	inactive
CN1C(=O)CO[C@H]2CN(S(C)(=O)=O)C[C@H]21	inconclusive: 12%
O=S(=O)(NCc1nc2cccnc2n1Cc1ccc(F)cc1)c1ccccc1	inconclusive: 21%
O=[N+]([O-])c1c(Cl)cc(Cl)c2nsnc12	inconclusive: 23%
O=C1c2ccccc2-c2ccc(Br)cc21	active: 32%
CCCc1nnc([C@H]2CCN(C(=O)COC)C2)o1	inconclusive: 10%

SMILES	inhibition
CCOc1ccccc1NC(=O)c1ccc([N+](=O)[O-])cc1	inconclusive: 19%
O=S(=O)(c1ccc([C@@H]2Nc3c(Cl)cc(Cl)cc3[C@@H]3C=CC[C@@H]32)cc1)N1CCOCC1	inconclusive: 28%
Cc1c(Cl)c([N+](=O)[O-])nn1CCCC(=O)Nc1ccc(Cl)cc1Cl	inconclusive: 17%
O=C(CN1C(=O)/C(=C\c2cccc(Cl)c2)Sc2ccccc21)N1CCOCC1	inconclusive: 15%
CCOC(=O)C1=C(C)NC2=C(C(=O)CC(C)(C)C2)C1c1ccsc1 (stereo not drawn)	inconclusive: 15%
Cc1nn2c(c1C)n1nc(C)c(C)c1n1nc(C)c(C)c21	inconclusive: 10%
COc1ccc(N2C(=O)C3CCCN3C2c2ccc(C)o2)cc1Cl (stereo not drawn)	inconclusive: 21%
Cc1cc(C)n(CCNC(=O)c2ccccc2OC2CCN(S(C)(=O)=O)CC2)n1	inconclusive: 12%
O=C(c1ccc(F)cc1)N1CCN=C1SCc1ccc(Cl)cc1	inactive
O=C(NCCSc1c(-c2ccccc2)[nH]c2ccccc12)c1ccco1	inconclusive: 12%
N#CC1=C(SCC(=O)Nc2ccc(Br)cc2)NC(=O)C(C#N)C12CCCCC2 (stereo not drawn)	inactive
CNC[C@H](O)c1ccc(O)c(O)c1	inconclusive: 15%
CCC(C)Sc1nc2c(c(=O)n1-c1ccccc1)SCC2 (stereo not drawn)	inconclusive: 14%
CC(C)C(=O)Nc1ccc(C(=O)c2ccccc2)cc1NC(=O)C(C)C	inactive
CCOc1cc(CN2CCCC2)ccc1OC	inconclusive: 25%
O=C(CO)n1c2ccccc2c2ccccc21	inactive
CCC(SC1=Nc2ccccc2C2=NC(C)C(=O)N12)C(=O)Nc1ccccc1OC (stereo not drawn)	inconclusive: 17%
Cc1cc([N+](=O)[O-])ccc1NC(NC(=O)c1cccs1)C(=O)c1ccccc1 (stereo not drawn)	active: 35%
COc1ccc(/C=C2/C(=O)N(c3ccccc3)N=C2C)cc1OC	inconclusive: 28%
CN(C)CC1(O)CCN(C(=O)c2cc(-c3cccs3)n(C)n2)C1 (stereo not drawn)	inconclusive: 10%
O=C(CC1(c2cccc(F)c2)CC(=O)N(C2CCCC2)C1=O)N1CCN(c2ccccc2F)CC1 (stereo not drawn)	inconclusive: 17%
CN(C(=O)c1cnn2c1CCCC2)[C@@H]1CCN(Cc2ccccc2)C1	inconclusive: 19%
Fc1ccc(C2=CC(c3ccccc3)n3c(nc4ccccc43)N2)cc1 (stereo not drawn)	inconclusive: 16%
COC(=O)c1ccc(CNC(C)c2cnn(-c3ccc(OC)cc3)c2C)cc1 (stereo not drawn)	inconclusive: 13%

A few values from the entries so far:
Value of CN(C)CC1(O)CCN(C(=O)c2cc(-c3cccs3)n(C)n2)C1 (stereo not drawn) under inhibition: inconclusive: 10%
Value of COc1ccc(N2C(=O)C3CCCN3C2c2ccc(C)o2)cc1Cl (stereo not drawn) under inhibition: inconclusive: 21%
Value of N#CC1=C(SCC(=O)Nc2ccc(Br)cc2)NC(=O)C(C#N)C12CCCCC2 (stereo not drawn) under inhibition: inactive
Value of O=C(NCCSc1c(-c2ccccc2)[nH]c2ccccc12)c1ccco1 under inhibition: inconclusive: 12%
Value of O=S(=O)(c1ccc([C@@H]2Nc3c(Cl)cc(Cl)cc3[C@@H]3C=CC[C@@H]32)cc1)N1CCOCC1 under inhibition: inconclusive: 28%
Value of CN(C(=O)c1cnn2c1CCCC2)[C@@H]1CCN(Cc2ccccc2)C1 under inhibition: inconclusive: 19%

More results

SMILES	inhibition
C=CCOc1nc2c(c(=O)n(C)c(=O)n2C)n1C	inactive
CC(=O)N1CCC(N2CC[C@H](c3nnc(-c4ccccc4F)o3)C2)CC1	inconclusive: 13%
CCOC(=O)C1=C(C)Nc2ncnn2C1c1ccc(OCc2ccccc2)c(OC)c1 (stereo not drawn)	inconclusive: 12%
N#C/C(=C\c1ccc(O)c(Br)c1)c1nc(-c2cccc([N+](=O)[O-])c2)cs1	inconclusive: 20%
O=C(Nc1ccc2nc(-c3ccco3)c(-c3ccco3)nc2c1)N1CCN(c2ccccn2)CC1	inconclusive: 20%
C(=C\c1nnc(-c2ccccc2)o1)/c1ccccc1	active: 34%
CCCC(=O)Nc1cccc(C(=O)NCCc2cn3nc(C)sc3n2)c1	inconclusive: 12%
Cn1c(SCC(=O)NCCO)nc2sc3c(c2c1=O)CCCC3	inactive
COc1cc(C(=O)Nc2ccc(S(=O)(=O)Nc3nccs3)cc2)cc(OC)c1OC	inconclusive: 14%
CC(=O)N1CCC(Oc2ccc(Cl)cc2C(=O)NCc2cnc3ccccn23)CC1	inactive
CCC(=O)Nc1cc(Cl)ccc1C(=O)N1CC[C@H](NC(C)=O)C1	inconclusive: 15%
O=S(=O)(c1cccc2cccnc12)N1CCN(c2ccccc2F)CC1	inconclusive: 13%
CCc1nnc(NC(=O)CSc2ncn[nH]2)s1	inactive
CC1=C(C(=O)Nc2cccnc2)C(c2ccccc2)n2nc(SCc3ccccc3F)nc2N1 (stereo not drawn)	inconclusive: 27%
Nc1cc(-c2cc(C(=O)O)ccc2Cl)c2cc[nH]c2n1	inconclusive: 23%
CCC(C)NC(=O)c1cn(C)c(=O)c2c1c1ccccc1n2C (stereo not drawn)	inactive
CCCc1nc(N2CCCC(c3cc(=O)[nH]cn3)C2)c2cnn(C)c2n1 (stereo not drawn)	inactive
C=CCNC(=O)N1CC[C@H]2CC(=O)N(c3ccccc3)CC[C@H]2C1	inconclusive: 12%
CC(C)NC(=O)C1CCC(Cn2c(=O)c3sccc3n(CC(N)=O)c2=O)CC1 (stereo not drawn)	inconclusive: 14%
COc1ccccc1N1CCN(C2CC(=O)N(c3ccc(C(=O)O)cc3)C2=O)CC1 (stereo not drawn)	inactive
CC(=O)Nc1ccc(S(=O)(=O)Nc2ccc3n(c2=O)C[C@H]2C[C@@H]3CN(C(=O)c3cccnc3)C2)cc1	inconclusive: 21%

Reference: PubChem BioAssay AID1259354 (Paczesny and Yang Labs, IUPUI and University of Michigan, 2018)
